# Library screening results

By UniProt entry, the sequences of proteins in these tests, tags left out.
UniProt E9BF75, entry or part of it: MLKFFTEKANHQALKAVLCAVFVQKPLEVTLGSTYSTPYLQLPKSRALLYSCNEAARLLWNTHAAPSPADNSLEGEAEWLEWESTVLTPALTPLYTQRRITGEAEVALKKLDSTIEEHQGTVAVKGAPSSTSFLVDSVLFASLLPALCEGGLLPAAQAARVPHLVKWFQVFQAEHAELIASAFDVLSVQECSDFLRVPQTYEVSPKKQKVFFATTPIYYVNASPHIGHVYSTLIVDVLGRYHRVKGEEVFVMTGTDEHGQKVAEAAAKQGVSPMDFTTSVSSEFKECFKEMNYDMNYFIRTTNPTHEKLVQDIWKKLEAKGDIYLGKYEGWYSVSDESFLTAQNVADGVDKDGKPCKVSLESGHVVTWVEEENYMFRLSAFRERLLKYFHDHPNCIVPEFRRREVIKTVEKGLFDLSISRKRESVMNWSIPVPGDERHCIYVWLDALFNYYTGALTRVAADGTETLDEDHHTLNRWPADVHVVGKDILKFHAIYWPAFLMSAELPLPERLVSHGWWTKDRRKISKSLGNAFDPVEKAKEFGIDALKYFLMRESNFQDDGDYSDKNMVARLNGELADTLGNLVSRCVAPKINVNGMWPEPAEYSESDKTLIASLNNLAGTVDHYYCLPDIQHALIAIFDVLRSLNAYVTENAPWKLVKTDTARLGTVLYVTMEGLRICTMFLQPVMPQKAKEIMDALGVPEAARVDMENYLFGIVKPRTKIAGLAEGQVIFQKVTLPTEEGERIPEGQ

From ChEMBL document CHEMBL3988442, “University of Dundee, Small-Polar-MMV Screening Library” (2021).

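Methionyl-tRNA synthetase (putative), Leishmania donovani (UniProt E9BF75). Primary screen of methionyl-tRNA synthetase; the read-out is not stated. The test concentration is not given. The values are filed as inhibition. Of about 68,000 compounds tested this way, about 24 (0.035%) reached 50% or more in at least one test.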

Results are percentages, as filed. The controls that fix the scale are not given in the record; negative values are as filed. This is an unselected part of the compounds tested.

| Compound | Inhibition |
|---|---|
| `CCc1csc(C2CCCN(C(=O)c3cc(C4CC4)[nH]n3)C2)n1` (centres unmarked) | 16.24 |
| `CC(C)(C)c1nnc(CN2CCCC(c3cc(C(N)=O)[nH]n3)C2)o1` (centres unmarked) | 0.6536 |
| `COCCc1noc(-c2ccc(-c3ccc(N)nc3)nc2)n1` | 19.09 |
| `CN1CCOC(CNC(=O)C2(c3ccccc3)CCC2)C1` (centres unmarked) | 11.17 |
| `CC(C)C1CCC(N2CCN(CCCS(C)(=O)=O)CC2)CC1` (centres unmarked) | 3.876 |
| `Cc1ccc(S(=O)(=O)NC(=O)c2cccc3c2OCCO3)c(C)c1` | 5.419 |
| `COc1cc(Cl)c(NC(=O)c2cc3c([nH]c2=O)CCCC3=O)cc1OC` | 10.08 |
| `O=C(c1cnccn1)N1C[C@@H]2OCC(=O)N(CC3CCCCC3)[C@@H]2C1` | 12.7 |
| `Cc1cnn(CC2CCCCN2Cc2nnc(C3CC3)n2C)c1` (centres unmarked) | 9.722 |
| `Cc1nc(C(C)NC(=O)NCc2nccn2CC(C)C)cs1` (centres unmarked) | 3.509 |
| `CC(=O)c1cccc(NC(=O)CN2CCCCC2C2OCCO2)c1` (centres unmarked) | 19.05 |
| `CCOC(=O)[C@]12CCCN(Cc3nccs3)C[C@H]1CN(S(C)(=O)=O)C2` | 8.511 |
| `CC(NC1(CNS(C)(=O)=O)CCOCC1)c1ccccc1` (centres unmarked) | 12.57 |
| `CCc1nccn1CC(=O)N1CCN(C2CCc3ccccc3C2)CC1` (centres unmarked) | 8.591 |
| `Cc1cc(C(=O)N2C[C@@H]3COC[C@]3(c3nnc(C(C)C)o3)C2)on1` | 3.763 |
| `Cc1nccnc1N1Cc2cnn(Cc3ccc(F)cc3)c2C1` | 15.08 |
| `NC(=O)CC1CCN(C(=O)NCCc2ccc(Cl)s2)CC1` | 19.2 |
| `CCc1noc(CN(CC)Cc2cc3ccc(C)cc3[nH]c2=O)n1` | -4.092 |
| `Cn1nc(Cn2cccc2)c2c1CN(Cc1ccoc1)C2` | 10.87 |
| `Fc1cccc2c1CCC2NCc1ccc(N2CCOCC2)cc1` (centres unmarked) | 12.47 |
| `Cc1cccc(NS(=O)(=O)c2cnn(C)c2)c1C#N` | 11.02 |
| `CCc1ncc2c(n1)CN(CC(O)COc1ccc(C#N)cc1)CC2` (centres unmarked) | 3.958 |
| `CCN(CC)CCC(=O)NCc1cc2n(n1)CCN(C(=O)N(C)C)C2` | 7.527 |
| `CCCc1nc(Nc2cccc(C(N)=O)c2)c2c(n1)c(C)nn2CC` | 17.84 |
| `CCCN1CCC(Nc2cc(-c3ccccc3)ccc2OC)CC1` | 7.219 |
| `Cc1cccc2c1ccn2CC(=O)O` | 3.133 |
| `CC(=O)N1CC(=O)N(c2ccccc2)CC12CCN(CC1CC1)C2` (centres unmarked) | 2.146 |
| `Cn1cc(CN(Cc2cccc(-n3cccn3)c2)C2CC2)cn1` | 13.31 |
| `CC(C)CNC(=O)N1CCOC2(CCNCC2)C1` | 15.79 |
| `O=C(Nc1cccc2c1CCCC2)C1CCCN1c1nccs1` (centres unmarked) | 14.11 |
| `CN(Cc1ccsc1)C(=O)c1cccc(F)c1` | 15.79 |
| `Cc1cc(-n2cnnn2)n2ncnc2n1` | -8.378 |
| `COc1cc(N2CCN(Cc3ccc(C)o3)C(CCO)C2)nc(N)n1` (centres unmarked) | 11.85 |
| `O=C(c1ccnnc1)N1CCc2ncnc(C3CCOC3)c2CC1` (centres unmarked) | 19.23 |
| `Cc1noc(CN(Cc2ccc3c(c2)OCO3)Cc2ccc(C)o2)n1` | 9.804 |
| `CN(C)Cc1nc(-n2cnc(C(=O)NC3CCCC3)c2)n2ccccc12` | 8.791 |
| `O=C(CCN1CCOCC1)N1CCC(Cc2ccc(CO)cc2)C1` (centres unmarked) | 16.1 |
| `CN(C)C(=O)c1cccc(CN2CCN(CCO)CC2)c1` | -3.911 |
| `NC[C@H]1CC[C@H](C(NC(=O)CC2CCCC2)c2ccccn2)CC1` (some centres unmarked) | 10.12 |
| `c1cnc(N2C[C@H]3CN(CC4CCOC4)C[C@H]3C2)nc1` (some centres unmarked) | 11.25 |
| `Cc1cc(C)nc(N2CCC(C(=O)Nc3ccc(C(C)C)cc3)CC2)n1` | 14.7 |
| `COc1ccc(CCN)cc1-c1ccc(O)cc1` | 12.63 |
| `O=C1Nc2ccccc2CN(C/C=C/c2ccccc2)C12CCNC2` (centres unmarked) | 13.14 |
| `CCc1ccc(S(=O)(=O)NCCOc2ccc3nnc(C)n3n2)s1` | 18.87 |
| `CC(C)CCNC(=O)c1csc(NC2CC2)n1` | 7.58 |
| `Cc1cc(-c2nn(C)c(Cl)c2CN2CC[C@@](O)(C3CCC3)[C@H](C)C2)no1` | -2.747 |
| `Cc1ccc(C(=O)N2CCn3cc(CN(C)Cc4ccco4)nc3C2)o1` | 6.863 |
| `CCN(CC)C(=O)CSc1nc2cc(C)nc-2c(O)n1Cc1ccco1` | 17.28 |
| `O=C(NCc1nc(C2CCCCC2)no1)C1CC(=O)N(C2CC2)C1` (centres unmarked) | 6.863 |
| `COc1ccc([C@@H]2CN(Cc3cccnc3N)C[C@H]2N(C)C)cc1` | 14.36 |
| `O=S1(=O)CCC(n2cc(CNc3ccccc3Br)cn2)C1` (centres unmarked) | 2.482 |
| `c1ccc(CN2CCC3(COCc4cnc(NCC5CC5)nc43)C2)cc1` (centres unmarked) | 9.375 |
| `O=C(Cn1cccc(S(=O)(=O)N2CCCC2)c1=O)c1ccccc1Cl` | 2.158 |
| `COC(=O)CSc1nnc(CCNC(=O)OC(C)(C)C)o1` | 1.69 |
| `O=C(C1CCCC1)N1CC2(CCN(C3COC3)C2)OCc2ccccc21` (centres unmarked) | 12.57 |
| `CC(C)c1nnc(NCc2ccsc2)o1` | 5.282 |
| `O=C1CCC(C(=O)Nc2cnn(-c3ccccc3Br)c2)N1` (centres unmarked) | 9.859 |
| `N#Cc1cccc(S(=O)(=O)N2CCCCC2C(N)=O)c1` (centres unmarked) | 6.897 |
| `CCC(CC)C(=O)N1CCN(Cc2cc(=O)c3ccccc3[nH]2)CC1` | 14.21 |
| `CCC(C)N(Cc1sccc1C)C(=O)c1cnc[nH]1` (centres unmarked) | 19.06 |
| `Cc1nc(CN2CCc3nc(N4CCCC4)nc(NC(C)C)c3C2)cs1` | 33.33 |

4 of the entries, repeated:

* c1ccc(CN2CCC3(COCc4cnc(NCC5CC5)nc43)C2)cc1 (centres unmarked) : 9.375%
* O=C(C1CCCC1)N1CC2(CCN(C3COC3)C2)OCc2ccccc21 (centres unmarked) : 12.57%
* COc1ccc([C@@H]2CN(Cc3cccnc3N)C[C@H]2N(C)C)cc1 : 14.36%
* CC(=O)c1cccc(NC(=O)CN2CCCCC2C2OCCO2)c1 (centres unmarked) : 19.05%